{"source": "PubChem BioAssay AID330", "about": "(DTP/NCI, 2004)", "system": "P388 leukemia ip, CD2F1 mice, survival T/C", "assay": "NCI In Vivo Anticancer Drug Screen. Data for tumor model P388 Leukemia (intraperitoneal) in CD2F1 (CDF1) mice", "conditions": "T/C endpoint: median survival time, higher T/C = longer survival", "key": {"[1]": {"conditions": "dose: 50.0 mg/kg/injection, schedule: Q01DX009 (ip), vehicle: saline with Tween-80"}, "[2]": {"conditions": "dose: 200.0 mg/kg/injection, schedule: Q01DX005 (ip), vehicle: Klucel (hydroxypropylcellulose) (HPC)"}, "[3]": {"conditions": "dose: 40.0 mg/kg/injection, schedule: Q04DX003 (ip), vehicle: saline with Tween-80"}}, "note": "The list shows only some results of the screen, not a fair sample: it is rich in T/C values a quarter to a half above the control, in often repeated tests (any T/C) and in doses without a T/C. Other doses and runs of a compound stand elsewhere. T/C: endpoint of the treated group in % of that of the vehicle group. Some doses have a count of surviving animals in place of a T/C: the source files T/C as zero there, which appears to mark a toxic dose or a test without result, not a measured value. Some doses without a T/C left all or most animals alive at the check, yet need not have been tolerated: survival well below the control is almost never listed, so the zero probably covers shortened survival too. Survivors were counted at the toxicity check, usually on the fifth day, unless a day is given; later deaths do not show. Schedules are NCI's codes, read here as Q, the interval in days (D) or hours (H), X, the number of doses. For survival time, the PubChem record calls one and a half times the control and up active, and a quarter to a half above the control has no call in these data; cut-offs in other NCI protocols can differ. Some doses were run more than once; the results are listed from low to high. Some T/C values are followed by the survivors on the day toxicity was checked, most often the fifth; without a count, all were alive then.", "data": [{"compound": "CSC(=S)N/N=C(\\c1ccccc1)c1ccccn1", "values": [{"measurement": "survivor count", "setting": "dose: 3.12 mg/kg/injection, schedule: Q01DX009 (ip), vehicle: saline with Tween-80", "result": "6 of 6"}, {"measurement": "survivor count", "setting": "dose: 25.0 mg/kg/injection, schedule: Q01DX009 (ip), vehicle: saline with Tween-80", "result": "6 of 6"}, {"measurement": "survivor count", "setting": "[1]", "result": "6 of 6"}, {"measurement": "survivor count", "setting": "dose: 100.0 mg/kg/injection, schedule: Q01DX009 (ip), vehicle: saline with Tween-80", "result": "6 of 6"}, {"measurement": "survivor count", "setting": "dose: 200.0 mg/kg/injection, schedule: Q01DX009 (ip), vehicle: saline with Tween-80", "result": "2 of 6"}]}, {"compound": "CCOC(=O)c1ccc2cc(C)c3ccc(N)nc3n2c1=O", "values": [{"measurement": "survivor count", "setting": "dose: 50.0 mg/kg/injection, schedule: Q01DX005 (ip), vehicle: saline with Tween-80", "result": "5 of 5"}]}, {"compound": "O=c1[nH]nc(SCc2ccccc2Cl)c(=O)[nH]1", "values": [{"measurement": "survivor count", "setting": "[2]", "result": "6 of 6"}]}, {"compound": "CCN(CC)c1nc(Cl)nc(NC(C)C)n1", "values": [{"measurement": "survivor count", "setting": "dose: 400.0 mg/kg/injection, schedule: Q04DX003 (ip), vehicle: saline with Tween-80", "result": "4 of 6"}]}, {"compound": "CSc1nc(SC)c2nc(SC)sc2n1", "values": [{"measurement": "survivor count", "setting": "dose: 200.0 mg/kg/injection, schedule: Q01DX001 (ip), vehicle: saline with Tween-80", "result": "6 of 6"}]}, {"compound": "O=C1NN=C(c2ccccc2)SC1c1ccccc1", "note": "(stereo not given)", "values": [{"measurement": "survivor count", "setting": "dose: 100.0 mg/kg/injection, schedule: Q01DX005 (ip), vehicle: saline with Tween-80", "result": "6 of 6"}]}, {"compound": "O=c1c2ccccc2oc2cccc(NCCCN3CCN(CCCNc4cccc5oc6ccccc6c(=O)c45)CC3)c12", "values": [{"measurement": "survivor count", "setting": "dose: 14.0 mg/kg/injection, schedule: Q01DX005 (ip), vehicle: saline with Tween-80", "result": "6 of 6"}, {"measurement": "survivor count", "setting": "dose: 28.0 mg/kg/injection, schedule: Q01DX005 (ip), vehicle: saline with Tween-80", "result": "6 of 6"}, {"measurement": "survivor count", "setting": "dose: 56.0 mg/kg/injection, schedule: Q01DX005 (ip), vehicle: saline with Tween-80", "result": "6 of 6"}]}, {"compound": "CCc1ccccc1NC1=C(Cl)C(=O)c2ccccc2C1=O", "values": [{"measurement": "survivor count", "setting": "dose: 240.0 mg/kg/injection, schedule: Q01DX005 (ip), vehicle: saline with Tween-80", "result": "0 of 6"}]}, {"compound": "Clc1cc(-c2ccccc2)no1", "values": [{"measurement": "survivor count", "setting": "dose: 200.0 mg/kg/injection, schedule: Q04DX003 (ip), vehicle: Klucel (hydroxypropylcellulose) (HPC)", "result": "2 of 6"}, {"measurement": "survivor count", "setting": "dose: 400.0 mg/kg/injection, schedule: Q04DX003 (ip), vehicle: Klucel (hydroxypropylcellulose) (HPC)", "result": "0 of 6"}]}, {"compound": "CCOC(=O)c1cnc(-c2ccccc2)n(-c2ccccc2)c1=O", "values": [{"measurement": "survivor count", "setting": "[2]", "result": "0 of 6"}]}, {"compound": "CCC(CC)OCCN1CCN(CCCN2c3ccccc3Sc3ccc(C(F)(F)F)cc32)CC1", "values": [{"measurement": "T/C", "setting": "[3]", "result": "131 % of control [5 of 6 alive]"}, {"measurement": "survivor count", "setting": "[3]", "result": "6 of 6"}]}, {"compound": "CN(C)c1ccc(-c2nnc3c(c(=O)n(C)c(=O)n3C)[n+]2[O-])cc1", "values": [{"measurement": "survivor count", "setting": "dose: 200.0 mg/kg/injection, schedule: Q01DX001 (ip), vehicle: Klucel (hydroxypropylcellulose) (HPC)", "result": "3 of 6"}, {"measurement": "survivor count", "setting": "dose: 400.0 mg/kg/injection, schedule: Q01DX001 (ip), vehicle: Klucel (hydroxypropylcellulose) (HPC)", "result": "4 of 6"}]}, {"compound": "COC(=O)Nc1nc2ccc(SC)cc2c(=O)[nH]1", "values": [{"measurement": "T/C", "setting": "dose: 200.0 mg/kg/injection, schedule: Q01DX009 (ip), vehicle: Klucel (hydroxypropylcellulose) (HPC)", "result": "144 and 149 % of control"}, {"measurement": "survivor count", "setting": "dose: 400.0 mg/kg/injection, schedule: Q01DX009 (ip), vehicle: Klucel (hydroxypropylcellulose) (HPC)", "result": "0 of 6"}]}, {"compound": "CCN(CC)Cc1cc(C(CC(=O)c2ccccc2)S(=O)(=O)c2ccc(C)cc2)ccc1O", "note": "(stereo not given)", "values": [{"measurement": "survivor count", "setting": "[1]", "result": "5 of 6"}, {"measurement": "survivor count", "setting": "dose: 100.0 mg/kg/injection, schedule: Q01DX009 (ip), vehicle: saline", "result": "0 of 6"}, {"measurement": "survivor count", "setting": "dose: 200.0 mg/kg/injection, schedule: Q01DX009 (ip), vehicle: saline", "result": "0 of 6"}]}, {"compound": "Nc1nc(SCc2ccccn2)c2[nH]cnc2n1", "values": [{"measurement": "T/C", "setting": "dose: 100.0 mg/kg/injection, schedule: Q04DX003 (ip), vehicle: Klucel (hydroxypropylcellulose) (HPC)", "result": "131 % of control"}, {"measurement": "T/C", "setting": "dose: 150.0 mg/kg/injection, schedule: Q04DX003 (ip), vehicle: Klucel (hydroxypropylcellulose) (HPC)", "result": "145 % of control"}, {"measurement": "T/C", "setting": "dose: 225.0 mg/kg/injection, schedule: Q04DX003 (ip), vehicle: Klucel (hydroxypropylcellulose) (HPC)", "result": "136 % of control [5 of 6 alive]"}]}, {"compound": "O=C(O)C(CSC(c1ccccc1)(c1ccccc1)c1ccccc1)NC(c1ccccc1)(c1ccccc1)c1ccccc1", "note": "(stereo not given)", "values": [{"measurement": "survivor count", "setting": "dose: 200.0 mg/kg/injection, schedule: Q01DX009 (ip), vehicle: other", "result": "4 of 6"}]}, {"compound": "C=COC(=O)N[C@H]1CCc2cc(OC)c(OC)c(OC)c2-c2ccc(SC)c(=O)cc21", "values": [{"measurement": "T/C", "setting": "dose: 0.75 mg/kg/injection, schedule: Q01DX009 (ip), vehicle: Klucel (hydroxypropylcellulose) (HPC)", "result": "125 and 127 % of control"}, {"measurement": "T/C", "setting": "dose: 1.5 mg/kg/injection, schedule: Q01DX009 (ip), vehicle: Klucel (hydroxypropylcellulose) (HPC)", "result": "128 and 141 % of control"}, {"measurement": "survivor count", "setting": "dose: 6.0 mg/kg/injection, schedule: Q01DX009 (ip), vehicle: Klucel (hydroxypropylcellulose) (HPC)", "result": "6 of 6"}]}, {"compound": "C1=C(N2CCOCC2)N(c2ccccc2)c2ccccc2N=C1N1CCCC1", "values": [{"measurement": "survivor count", "setting": "dose: 100.0 mg/kg/injection, schedule: Q01DX005 (ip), vehicle: Klucel (hydroxypropylcellulose) (HPC)", "result": "1 of 6"}, {"measurement": "survivor count", "setting": "[2]", "result": "0 of 6"}]}]}
